Measured values published in article PMC12597689.
These are yes or no findings as the source states them, for the method shown. In cells and extracts the contact can be indirect. A yes stands for co-enrichment or nearness to the bait. Other partners may have been found.

Protein sequences, listed by entry. Tags and fused reporters are not part of them.
UniProt Q13148: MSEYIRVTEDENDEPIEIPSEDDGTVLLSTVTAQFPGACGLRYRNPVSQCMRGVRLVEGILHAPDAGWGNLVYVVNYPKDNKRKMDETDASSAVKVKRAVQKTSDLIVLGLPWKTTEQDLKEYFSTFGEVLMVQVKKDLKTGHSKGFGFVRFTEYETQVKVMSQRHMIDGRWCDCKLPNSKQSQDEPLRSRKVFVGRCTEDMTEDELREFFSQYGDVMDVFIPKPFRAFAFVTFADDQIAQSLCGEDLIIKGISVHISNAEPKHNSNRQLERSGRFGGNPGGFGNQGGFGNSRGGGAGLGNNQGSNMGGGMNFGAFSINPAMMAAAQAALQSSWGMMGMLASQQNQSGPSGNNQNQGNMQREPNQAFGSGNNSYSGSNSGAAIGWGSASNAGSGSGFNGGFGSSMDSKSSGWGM

Biological target: transactive response DNA binding protein 43 kDa (human (endogenous in iPSC-derived motor neurons)) (UniProt Q13148)
Test: affinity purification with mass spectrometry; anti-TDP-43 (N-terminal) antibody coupled to M-270 epoxy beads; about 1 mg protein of iPSC-neuron lysate (control and KIF1A mutant neurons), 12 to 16 hours at 4°C; eluate analysed by LC-MS/MS

B1: KIF3B (protein, UniProt O15066 1-747)
chain: MSKLKSSESVRVVVRCRPMNGKEKAASYDKVVDVDVKLGQVSVKNPKGTAHEMPKTFTFDAVYDWNAKQFELYDETFRPLVDSVLQGFNGTIFAYGQTGTGKTYTMEGIRGDPEKRGVIPNSFDHIFTHISRSQNQQYLVRASYLEIYQEEIRDLLSKDQTKRLELKERPDTGVYVKDLSSFVTKSVKEIEHVMNVGNQNRSVGATNMNEHSSRSHAIFVITIECSEVGLDGENHIRVGKLNLVDLAGSERQAKTGAQGERLKEATKINLSLSALGNVISALVDGKSTHIPYRDSKLTRLLQDSLGGNAKTVMVANVGPASYNVEETLTTLRYANRAKNIKNKPRVNEDPKDALLREFQEEIARLKAQLEKRSIGRRKRREKRREGGGSGGGGEEEEEEGEEGEEEGDDKDDYWREQQEKLEIEKRAIVEDHSLVAEEKMRLLKEKEKKMEDLRREKDAAEMLGAKIKAMESKLLVGGKNIVDHTNEQQKILEQKRQEIAEQKRREREIQQQMESRDEETLELKETYSSLQQEVDIKTKKLKKLFSKLQAVKAEIHDLQEEHIKERQELEQTQNELTRELKLKHLIIENFIPLEEKSKIMNRAFFDEEEDHWKLHPITRLENQQMMKRPVSAVGYKRPLSQHARMSMMIRPEARYRAENIVLLELDMPSRTTRDYEGPAIAPKVQAALDAALQDEDEIQVDASSFESTANKKSKARPKSGRKSGSSSSSSGTPASQLYPQSRGLVPK
Q: Which binding does the source give for B1 here?
A: binds
